Reference: the supplement of paper PMC6411743
± gives the standard deviation of the averaged measurements. The entries are a selection whose mix differs from that of the whole data set. Most entries show no effect beyond the scatter of the controls.

Chains of the proteins cited; added tags and fusions are not shown. Lines headed by an entry give the natural chain unless they say otherwise; changes in a name come on top.
UniProt Q9BZE2: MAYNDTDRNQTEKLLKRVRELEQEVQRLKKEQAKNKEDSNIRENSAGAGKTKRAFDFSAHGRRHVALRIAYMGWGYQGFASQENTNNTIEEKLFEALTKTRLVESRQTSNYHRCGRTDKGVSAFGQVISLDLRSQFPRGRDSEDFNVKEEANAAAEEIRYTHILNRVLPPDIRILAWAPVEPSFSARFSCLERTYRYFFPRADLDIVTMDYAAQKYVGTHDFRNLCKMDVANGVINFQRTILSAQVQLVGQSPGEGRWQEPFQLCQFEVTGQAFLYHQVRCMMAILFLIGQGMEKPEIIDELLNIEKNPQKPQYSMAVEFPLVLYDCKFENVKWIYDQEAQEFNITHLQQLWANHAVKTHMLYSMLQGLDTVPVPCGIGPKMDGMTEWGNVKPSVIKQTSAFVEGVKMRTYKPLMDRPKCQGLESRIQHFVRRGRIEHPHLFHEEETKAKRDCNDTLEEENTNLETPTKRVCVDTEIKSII
UniProt Q9BWH6: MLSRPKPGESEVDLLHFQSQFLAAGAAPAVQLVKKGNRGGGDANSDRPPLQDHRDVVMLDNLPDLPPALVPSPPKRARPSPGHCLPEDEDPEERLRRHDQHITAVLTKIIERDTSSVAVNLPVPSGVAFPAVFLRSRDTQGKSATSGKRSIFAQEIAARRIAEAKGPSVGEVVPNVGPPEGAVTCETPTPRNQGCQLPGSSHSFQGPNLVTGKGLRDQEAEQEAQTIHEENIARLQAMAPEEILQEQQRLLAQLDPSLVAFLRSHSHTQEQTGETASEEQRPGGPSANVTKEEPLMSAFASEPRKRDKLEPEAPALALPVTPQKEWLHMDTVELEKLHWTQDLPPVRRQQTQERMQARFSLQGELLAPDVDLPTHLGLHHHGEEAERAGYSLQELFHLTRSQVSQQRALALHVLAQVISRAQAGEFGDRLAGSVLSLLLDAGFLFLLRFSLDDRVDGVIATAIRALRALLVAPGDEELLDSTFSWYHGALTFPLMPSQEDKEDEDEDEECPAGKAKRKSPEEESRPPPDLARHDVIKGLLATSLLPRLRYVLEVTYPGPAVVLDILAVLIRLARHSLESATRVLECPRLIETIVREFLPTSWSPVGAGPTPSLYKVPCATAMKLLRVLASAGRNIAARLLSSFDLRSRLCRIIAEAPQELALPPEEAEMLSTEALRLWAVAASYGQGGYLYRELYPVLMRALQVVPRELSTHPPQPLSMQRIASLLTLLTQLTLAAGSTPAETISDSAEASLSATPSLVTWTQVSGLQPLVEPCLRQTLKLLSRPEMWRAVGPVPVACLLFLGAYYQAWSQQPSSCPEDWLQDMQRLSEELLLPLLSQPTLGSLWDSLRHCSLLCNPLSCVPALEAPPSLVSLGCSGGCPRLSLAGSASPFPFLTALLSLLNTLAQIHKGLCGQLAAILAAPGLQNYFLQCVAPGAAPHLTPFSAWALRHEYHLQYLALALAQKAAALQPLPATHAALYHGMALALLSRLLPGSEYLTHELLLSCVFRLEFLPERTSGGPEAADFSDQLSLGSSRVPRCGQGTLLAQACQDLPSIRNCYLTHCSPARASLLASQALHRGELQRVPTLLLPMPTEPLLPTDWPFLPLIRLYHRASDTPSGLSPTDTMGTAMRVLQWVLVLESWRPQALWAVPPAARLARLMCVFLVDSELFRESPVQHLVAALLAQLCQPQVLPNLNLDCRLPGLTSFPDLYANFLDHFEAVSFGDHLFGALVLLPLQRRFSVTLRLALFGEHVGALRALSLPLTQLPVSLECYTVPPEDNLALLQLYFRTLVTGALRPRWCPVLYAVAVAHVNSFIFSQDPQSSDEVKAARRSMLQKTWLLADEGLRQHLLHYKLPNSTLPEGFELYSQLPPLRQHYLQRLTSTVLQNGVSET
UniProt Q9BW27: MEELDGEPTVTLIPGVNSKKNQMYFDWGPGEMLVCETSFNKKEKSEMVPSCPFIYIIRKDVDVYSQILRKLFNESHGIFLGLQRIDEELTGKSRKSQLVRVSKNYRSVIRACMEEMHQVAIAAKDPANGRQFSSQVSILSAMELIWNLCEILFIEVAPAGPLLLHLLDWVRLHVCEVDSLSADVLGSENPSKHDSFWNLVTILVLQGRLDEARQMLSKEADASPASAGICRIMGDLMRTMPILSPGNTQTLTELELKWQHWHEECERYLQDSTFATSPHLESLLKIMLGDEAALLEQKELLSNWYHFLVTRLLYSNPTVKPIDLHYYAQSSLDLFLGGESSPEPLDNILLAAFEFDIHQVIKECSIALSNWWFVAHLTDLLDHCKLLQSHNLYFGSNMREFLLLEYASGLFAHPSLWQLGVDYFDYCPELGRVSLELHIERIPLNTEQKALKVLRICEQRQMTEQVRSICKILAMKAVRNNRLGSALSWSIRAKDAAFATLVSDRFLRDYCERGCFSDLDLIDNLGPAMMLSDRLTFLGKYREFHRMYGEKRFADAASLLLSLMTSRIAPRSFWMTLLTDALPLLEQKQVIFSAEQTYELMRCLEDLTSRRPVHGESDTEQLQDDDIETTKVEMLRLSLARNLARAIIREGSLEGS
UniProt Q9BYM8: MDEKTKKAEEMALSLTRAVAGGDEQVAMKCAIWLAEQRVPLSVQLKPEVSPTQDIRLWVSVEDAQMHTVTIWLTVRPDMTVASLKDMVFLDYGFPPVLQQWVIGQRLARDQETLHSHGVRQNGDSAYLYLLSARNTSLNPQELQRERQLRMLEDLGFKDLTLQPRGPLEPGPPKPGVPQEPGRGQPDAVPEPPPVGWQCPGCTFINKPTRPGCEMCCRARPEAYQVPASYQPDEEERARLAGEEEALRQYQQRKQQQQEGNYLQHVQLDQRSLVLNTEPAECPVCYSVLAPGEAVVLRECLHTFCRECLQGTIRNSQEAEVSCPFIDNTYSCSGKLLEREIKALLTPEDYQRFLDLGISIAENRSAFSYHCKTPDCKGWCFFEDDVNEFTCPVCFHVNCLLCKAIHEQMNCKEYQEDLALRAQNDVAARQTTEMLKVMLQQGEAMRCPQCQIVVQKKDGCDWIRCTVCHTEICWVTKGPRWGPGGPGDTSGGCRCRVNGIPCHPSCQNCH
UniProt Q99549: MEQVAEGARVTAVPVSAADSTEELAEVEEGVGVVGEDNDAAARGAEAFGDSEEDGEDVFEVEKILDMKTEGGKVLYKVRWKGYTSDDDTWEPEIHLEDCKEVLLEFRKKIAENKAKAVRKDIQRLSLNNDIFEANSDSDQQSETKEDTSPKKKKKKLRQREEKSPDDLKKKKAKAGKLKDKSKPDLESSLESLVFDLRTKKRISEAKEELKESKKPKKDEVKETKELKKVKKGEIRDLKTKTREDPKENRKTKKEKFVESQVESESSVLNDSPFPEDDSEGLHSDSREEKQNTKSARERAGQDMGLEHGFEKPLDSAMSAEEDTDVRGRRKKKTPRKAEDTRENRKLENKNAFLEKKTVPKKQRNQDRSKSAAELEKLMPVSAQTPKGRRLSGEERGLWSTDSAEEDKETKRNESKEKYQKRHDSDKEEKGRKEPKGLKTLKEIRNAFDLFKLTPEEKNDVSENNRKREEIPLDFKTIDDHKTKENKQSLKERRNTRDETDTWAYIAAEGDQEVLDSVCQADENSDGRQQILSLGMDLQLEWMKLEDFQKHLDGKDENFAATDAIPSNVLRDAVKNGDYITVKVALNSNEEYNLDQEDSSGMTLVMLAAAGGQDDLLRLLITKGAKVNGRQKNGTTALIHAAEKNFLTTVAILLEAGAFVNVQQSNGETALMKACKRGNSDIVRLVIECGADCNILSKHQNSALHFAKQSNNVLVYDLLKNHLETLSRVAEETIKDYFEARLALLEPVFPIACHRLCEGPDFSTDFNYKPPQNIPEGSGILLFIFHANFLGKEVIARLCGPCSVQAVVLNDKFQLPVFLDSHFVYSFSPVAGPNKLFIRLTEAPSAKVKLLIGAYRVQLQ
UniProt Q9BTY7: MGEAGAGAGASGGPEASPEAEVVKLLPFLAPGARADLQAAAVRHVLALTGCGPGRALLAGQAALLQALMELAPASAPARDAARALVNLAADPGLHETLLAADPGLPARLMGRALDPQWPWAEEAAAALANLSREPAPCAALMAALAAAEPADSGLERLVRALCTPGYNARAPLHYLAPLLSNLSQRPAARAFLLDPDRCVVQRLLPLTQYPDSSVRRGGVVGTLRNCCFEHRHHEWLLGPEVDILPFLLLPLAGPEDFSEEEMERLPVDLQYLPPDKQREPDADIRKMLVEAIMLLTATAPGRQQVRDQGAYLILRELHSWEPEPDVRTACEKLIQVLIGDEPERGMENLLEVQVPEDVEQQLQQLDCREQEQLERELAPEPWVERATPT
UniProt Q9BXW6, whole entry: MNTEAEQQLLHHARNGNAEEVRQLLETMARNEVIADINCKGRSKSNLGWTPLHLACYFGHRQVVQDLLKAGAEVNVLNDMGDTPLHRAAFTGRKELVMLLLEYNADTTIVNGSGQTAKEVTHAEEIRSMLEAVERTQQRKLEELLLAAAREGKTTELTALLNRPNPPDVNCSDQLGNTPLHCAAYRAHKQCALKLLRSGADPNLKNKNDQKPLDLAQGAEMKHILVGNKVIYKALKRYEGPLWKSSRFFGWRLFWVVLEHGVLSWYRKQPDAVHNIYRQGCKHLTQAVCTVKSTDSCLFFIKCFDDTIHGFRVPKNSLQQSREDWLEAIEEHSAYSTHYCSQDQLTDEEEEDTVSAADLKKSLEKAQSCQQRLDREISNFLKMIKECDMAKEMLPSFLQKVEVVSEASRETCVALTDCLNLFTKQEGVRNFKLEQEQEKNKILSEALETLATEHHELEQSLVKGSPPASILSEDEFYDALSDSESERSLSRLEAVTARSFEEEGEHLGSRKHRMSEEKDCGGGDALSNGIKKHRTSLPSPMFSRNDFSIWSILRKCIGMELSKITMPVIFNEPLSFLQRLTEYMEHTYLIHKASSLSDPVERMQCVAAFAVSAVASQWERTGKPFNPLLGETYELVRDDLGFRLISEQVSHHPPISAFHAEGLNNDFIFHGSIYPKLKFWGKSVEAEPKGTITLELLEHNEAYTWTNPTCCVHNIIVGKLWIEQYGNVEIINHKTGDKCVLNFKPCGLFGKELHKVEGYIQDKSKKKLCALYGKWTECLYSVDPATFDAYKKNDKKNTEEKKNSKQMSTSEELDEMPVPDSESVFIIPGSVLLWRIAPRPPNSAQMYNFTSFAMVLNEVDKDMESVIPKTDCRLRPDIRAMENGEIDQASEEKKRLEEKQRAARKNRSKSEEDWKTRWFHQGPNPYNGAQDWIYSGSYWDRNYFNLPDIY
UniProt Q9BT30: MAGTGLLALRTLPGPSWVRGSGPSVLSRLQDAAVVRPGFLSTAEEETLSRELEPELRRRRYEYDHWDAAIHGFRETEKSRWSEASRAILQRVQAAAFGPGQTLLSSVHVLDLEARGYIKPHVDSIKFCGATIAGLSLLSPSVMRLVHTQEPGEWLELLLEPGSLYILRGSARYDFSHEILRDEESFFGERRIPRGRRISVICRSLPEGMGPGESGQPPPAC
UniProt Q9BUE0: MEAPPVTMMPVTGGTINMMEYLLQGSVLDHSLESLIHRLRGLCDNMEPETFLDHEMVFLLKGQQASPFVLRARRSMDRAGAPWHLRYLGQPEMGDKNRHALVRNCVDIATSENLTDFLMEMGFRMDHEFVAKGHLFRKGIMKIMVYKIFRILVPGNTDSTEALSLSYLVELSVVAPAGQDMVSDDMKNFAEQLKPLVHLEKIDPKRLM
UniProt Q9BVW5: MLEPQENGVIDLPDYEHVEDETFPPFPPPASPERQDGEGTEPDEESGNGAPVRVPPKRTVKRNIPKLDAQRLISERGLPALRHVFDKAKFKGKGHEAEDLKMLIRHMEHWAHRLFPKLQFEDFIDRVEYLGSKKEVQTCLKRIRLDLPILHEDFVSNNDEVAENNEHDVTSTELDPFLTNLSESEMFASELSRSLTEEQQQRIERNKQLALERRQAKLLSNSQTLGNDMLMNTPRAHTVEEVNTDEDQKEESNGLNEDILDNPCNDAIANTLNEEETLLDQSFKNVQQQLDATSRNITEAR
UniProt Q9BUL5: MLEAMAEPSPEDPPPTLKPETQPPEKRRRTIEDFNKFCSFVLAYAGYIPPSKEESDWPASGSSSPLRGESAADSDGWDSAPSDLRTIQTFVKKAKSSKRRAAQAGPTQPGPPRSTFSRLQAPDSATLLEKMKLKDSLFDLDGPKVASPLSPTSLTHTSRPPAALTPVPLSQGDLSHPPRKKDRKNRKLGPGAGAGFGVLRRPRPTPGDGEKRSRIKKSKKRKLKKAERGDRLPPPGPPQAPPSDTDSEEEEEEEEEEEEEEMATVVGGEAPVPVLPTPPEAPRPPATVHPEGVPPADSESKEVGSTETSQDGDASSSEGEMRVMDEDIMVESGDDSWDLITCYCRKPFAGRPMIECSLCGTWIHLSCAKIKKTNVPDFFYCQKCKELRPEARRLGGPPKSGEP
UniProt Q9BY43: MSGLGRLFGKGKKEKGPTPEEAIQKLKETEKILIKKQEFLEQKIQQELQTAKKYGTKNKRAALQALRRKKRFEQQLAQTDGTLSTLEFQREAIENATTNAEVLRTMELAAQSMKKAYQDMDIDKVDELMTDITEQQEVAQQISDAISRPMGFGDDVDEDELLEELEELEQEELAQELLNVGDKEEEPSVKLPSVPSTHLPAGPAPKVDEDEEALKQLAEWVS

Compound: Nc1ncnc2c1ncn2[C@@H]1O[C@H](COP(=O)(O)OP(=O)(O)OP(=O)(O)O)[C@@H](O)[C@H]1O [adenosine triphosphate]
Test: NP40-soluble protein abundance relative to vehicle (solubility fold change) (ratio); higher = more soluble protein in presence of ATP
Method in brief: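 In three independent experiments, Jurkat crude lysate made by Dounce homogenisation was treated for 10 min at room temperature and then 3 min at 37 °C with eight concentrations ranging from 0.1 to 10 mM. It was then solubilised with 0.8% NP40 plus benzonase for 60 min at 4 °C and ultracentrifuged. The supernatant was TMT-labelled for LC-MS/MS, and each value is the fold change against the detergent-processed vehicle for the same replicate, using vsn-normalised intensities.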

Target	NP40-soluble protein abundance (concentration: 0.1mM)	NP40-soluble protein abundance (concentration: 0.5mM)
RBM4B (UniProt Q9BQ04)	1.03 ± 0.04	0.944 ± 0.014
POLR3C (UniProt Q9BUI4)	1.03 ± 0.036	1 ± 0.022
UniProt Q99871 and related entries	0.938 ± 0.046	0.895 ± 0.091
UniProt Q9BXW7 and related entries	1.02 ± 0.059	1.01 ± 0.032
UniProt Q9BXS6 and related entries	0.947 ± 0.022	0.954 ± 0.015
SDF4 (UniProt Q9BRK5)	0.985 ± 0.057	0.953 ± 0.026
PUS3 (UniProt Q9BZE2)	1.04 ± 0.073	1.06 ± 0.045
TRIM56 (UniProt Q9BRZ2)	1.02 ± 0.068	1 ± 0.064
UCK2 (UniProt Q9BZX2)	1.03 ± 0.056	1.06 ± 0.064
UniProt Q9BUH6	1.01 ± 0.018	1.01 ± 0.06
ARPC5L (UniProt Q9BPX5)	0.881 ± 0.081	0.918 ± 0.089
PSMG3 (UniProt Q9BT73)	0.982 ± 0.013	0.972 ± 0.12
RPAP1 (UniProt Q9BWH6)	0.979 ± 0.012	0.992 ± 0.05
BUD13 (UniProt Q9BRD0)	1.01 ± 0.054	1.05 ± 0.07
UniProt Q9BZE1 and related entries	1.02 ± 0.14	1.11 ± 0.2
UniProt Q9BSC4 and related entries	0.98 ± 0.011	1.06 ± 0.013
UniProt Q99622 and related entries	0.904 ± 0.16	0.819 ± 0.22
NUP85 (UniProt Q9BW27)	1.03 ± 0.081	1.02 ± 0.069
RNF2 (UniProt Q99496)	1 ± 0.016	1.07 ± 0.015
C1orf50 (UniProt Q9BV19)	1.02 ± 0.047	0.974 ± 0.07
NUP88 (UniProt Q99567)	1.03 ± 0.043	1.05 ± 0.053
UniProt Q99767-2	0.92 ± 0.089	0.848 ± 0.092
UniProt Q99766	1.03 ± 0.055	1.01 ± 0.029
PAIP2 (UniProt Q9BPZ3)	0.979 ± 0.033	0.946 ± 0.034

Target	NP40-soluble protein abundance (concentration: 0.1mM)	NP40-soluble protein abundance (concentration: 0.5mM)
RBCK1 (UniProt Q9BYM8)	1.02 ± 0.065	1.01 ± 0.074
UniProt Q9BRR6 and related entries	1.04 ± 0.18	1.02 ± 0.17
UniProt Q99549 and related entries	0.984 ± 0.017	1.04 ± 0.019
AGPAT1 (UniProt Q99943)	0.99697 ± 0.00078	1.003 ± 0.0044
PCGF6 (UniProt Q9BYE7)	0.953 ± 0.11	1 ± 0.028
SGPP1 (UniProt Q9BX95)	1.05 ± 0.059	0.954 ± 0.04
UniProt Q9BQI0 and related entries	0.85 ± 0.18	0.865 ± 0.14
UniProt Q99708-3|I6L8A6 and related entries	0.939 ± 0.037	0.963 ± 0.046
RIOK1 (UniProt Q9BRS2)	1.031 ± 0.0096	1.07 ± 0.067
SMAD5 (UniProt Q99717)	1.09 ± 0.067	1.03 ± 0.11
UniProt Q9BQP7	1.01 ± 0.027	1.02 ± 0.038
UniProt Q9BQ75 and related entries	0.947 ± 0.05	0.936 ± 0.096
UniProt Q96T76 and related entries	0.983 ± 0.034	0.94 ± 0.029
SORT1 (UniProt Q99523)	0.955 ± 0.02	0.929 ± 0.021
NABP2 (UniProt Q9BQ15)	0.892 ± 0.11	1.01 ± 0.17
UniProt Q9BTY7	0.957 ± 0.12	0.911 ± 0.12
UniProt Q9BVC4 and related entries	1.01 ± 0.06	0.965 ± 0.044
UniProt Q9BQC6	0.98 ± 0.076	0.893 ± 0.13
FUNDC2 (UniProt Q9BWH2)	0.923 ± 0.017	0.912 ± 0.046
GRWD1 (UniProt Q9BQ67)	1.03 ± 0.029	1.05 ± 0.03
UniProt Q9BW91 and related entries	1.03 ± 0.071	1.04 ± 0.074
POP1 (UniProt Q99575)	1.01 ± 0.06	1.02 ± 0.057
UniProt Q9BX66 and related entries	0.948 ± 0.058	0.932 ± 0.13
HEMGN (UniProt Q9BXL5)	0.947 ± 0.052	0.94 ± 0.042

A different layout for part of the listing above:
UniProt Q9BX66 and related entries
  NP40-soluble protein abundance (concentration: 0.1mM): 0.948 ± 0.058; NP40-soluble protein abundance (concentration: 0.5mM): 0.932 ± 0.13
HEMGN (UniProt Q9BXL5)
  NP40-soluble protein abundance (concentration: 0.1mM): 0.947 ± 0.052; NP40-soluble protein abundance (concentration: 0.5mM): 0.94 ± 0.042

Additional entries

Target	NP40-soluble protein abundance (concentration: 0.1mM)	NP40-soluble protein abundance (concentration: 0.5mM)
CPNE1 (UniProt Q99829)	1.03 ± 0.061	0.995 ± 0.052
UniProt Q9BRX8 and related entries	1.06 ± 0.12	1.03 ± 0.086
ITPA (UniProt Q9BY32)	1.06 ± 0.069	1.02 ± 0.092
RBM4 (UniProt Q9BWF3)	1 ± 0.021	1.02 ± 0.03
NUF2 (UniProt Q9BZD4)	0.961 ± 0.026	0.973 ± 0.032
SIKE1 (UniProt Q9BRV8)	0.939 ± 0.13	0.862 ± 0.1
UniProt Q99613 and related entries	0.969 ± 0.06	0.957 ± 0.07
CORO1B (UniProt Q9BR76)	1.02 ± 0.09	1.1 ± 0.075
VAT1 (UniProt Q99536)	0.995 ± 0.046	1.04 ± 0.057
UniProt Q9BT25 and related entries	0.974 ± 0.052	0.897 ± 0.068
HDHD3 (UniProt Q9BSH5)	1.02 ± 0.066	0.9989 ± 0.0078
UniProt Q9BSJ8 and related entries	1.04 ± 0.065	1.05 ± 0.08
UniProt Q99460 and related entries	0.959 ± 0.047	0.952 ± 0.045
ADAT1 (UniProt Q9BUB4)	1.09 ± 0.15	1.07 ± 0.077
DOHH (UniProt Q9BU89)	0.923 ± 0.079	0.893 ± 0.14
DCUN1D5 (UniProt Q9BTE7)	1.05 ± 0.035	0.968 ± 0.075
DNAJC2 (UniProt Q99543)	1.02 ± 0.039	1.02 ± 0.048
UniProt Q9BYT3 and related entries	0.887 ± 0.12	1.06 ± 0.047
PRPF18 (UniProt Q99633)	0.96 ± 0.023	0.964 ± 0.025
UniProt Q9BVC5 and related entries	0.974 ± 0.04	0.938 ± 0.068
ACAT2 (UniProt Q9BWD1)	0.979 ± 0.038	0.99 ± 0.053
BACH2 (UniProt Q9BYV9)	1.03 ± 0.1	1.05 ± 0.053
UniProt Q9BXW6 and related entries	1.08 ± 0.092	1.04 ± 0.15
ARID3A (UniProt Q99856)	0.984 ± 0.022	0.995 ± 0.018

Target	NP40-soluble protein abundance (concentration: 0.1mM)	NP40-soluble protein abundance (concentration: 0.5mM)
YTHDF1 (UniProt Q9BYJ9)	1.06 ± 0.067	1.07 ± 0.051
MACROD1 (UniProt Q9BQ69)	0.989 ± 0.036	0.9694 ± 0.0022
UniProt Q9BRK0-2|B4DE60 and related entries	0.882 ± 0.072	0.881 ± 0.15
C16orf70 (UniProt Q9BSU1)	1.07 ± 0.078	0.986 ± 0.14
ALKBH7 (UniProt Q9BT30)	0.963 ± 0.098	0.941 ± 0.089
TBCB (UniProt Q99426)	1.01 ± 0.029	0.994 ± 0.039
UniProt Q9BRX9	1.03 ± 0.066	0.982 ± 0.1
MED18 (UniProt Q9BUE0)	1.03 ± 0.065	1.08 ± 0.077
UniProt Q9BW85	0.918 ± 0.044	0.958 ± 0.058
PTDSS2 (UniProt Q9BVG9)	1.06 ± 0.11	0.896 ± 0.066
FSD1 (UniProt Q9BTV5)	1.05 ± 0.067	1.04 ± 0.047
LIMD2 (UniProt Q9BT23)	0.939 ± 0.016	1.02 ± 0.055
DCTN5 (UniProt Q9BTE1)	1.02 ± 0.028	0.977 ± 0.086
UniProt Q96TC7	0.997 ± 0.018	1.03 ± 0.033
TM9SF2 (UniProt Q99805)	1.09 ± 0.12	1.06 ± 0.1
TIPIN (UniProt Q9BVW5)	0.924 ± 0.058	0.889 ± 0.098
C7orf50 (UniProt Q9BRJ6)	1.07 ± 0.095	0.999 ± 0.04
UniProt Q9BZ29-4|A0A088AWN3|A0A0A0MRA7|A0A0A0MSY4|Q9BZ29 and related entries	1.1 ± 0.037	0.943 ± 0.065
TTC1 (UniProt Q99614)	0.985 ± 0.034	0.9718 ± 0.0086
MRPL32 (UniProt Q9BYC8)	0.969 ± 0.22	0.987 ± 0.21
UBXN6 (UniProt Q9BZV1)	1.02 ± 0.026	0.957 ± 0.076
UniProt Q9BQG0 and related entries	0.978 ± 0.018	0.978 ± 0.087
KATNB1 (UniProt Q9BVA0)	1.009 ± 0.0077	0.992 ± 0.021
NCAPG (UniProt Q9BPX3)	0.989 ± 0.015	1.01 ± 0.051

As entered above:
NP40-soluble protein abundance (concentration: 0.5mM), UniProt Q9BRK0-2|B4DE60 and related entries is entered as 0.881 ± 0.15
NP40-soluble protein abundance (concentration: 0.1mM), NCAPG (UniProt Q9BPX3) is entered as 0.989 ± 0.015

(further entries)

Target	NP40-soluble protein abundance (concentration: 0.1mM)	NP40-soluble protein abundance (concentration: 0.5mM)
DIDO1 (UniProt Q9BTC0)	0.993 ± 0.025	1.12 ± 0.039
PAPOLG (UniProt Q9BWT3)	1.07 ± 0.082	1.11 ± 0.029
TSG101 (UniProt Q99816)	0.972 ± 0.023	0.98 ± 0.035
UniProt Q9BUL5 and related entries	0.962 ± 0.024	0.966 ± 0.048
SH3GL2 (UniProt Q99962)	1 ± 0.075	1 ± 0.043
UniProt Q9BSI4-2	1.08 ± 0.013	1.25 ± 0.04
UniProt Q9BRR9-2|Q9BRR9-4|Q9BRR9-5|R4GN15	0.966 ± 0.049	0.915 ± 0.058
UniProt Q9BRA0 and related entries	0.904 ± 0.023	0.87 ± 0.095
UniProt Q9BY43 and related entries	1.06 ± 0.12	1.01 ± 0.074
UniProt Q9BZQ6-2	1.03 ± 0.033	1.01 ± 0.021
PELO (UniProt Q9BRX2)	1.05 ± 0.087	1.05 ± 0.045
UniProt Q9BWG4 and related entries	1.03 ± 0.094	0.9937 ± 0.0013
UniProt Q9BQA9 and related entries	1.02 ± 0.07	0.937 ± 0.074
GINS4 (UniProt Q9BRT9)	0.962 ± 0.045	0.965 ± 0.066
UniProt Q9BQ61	0.91 ± 0.13	0.881 ± 0.16
UniProt Q99623	0.956 ± 0.03	0.964 ± 0.034
GPA33 (UniProt Q99795)	0.952 ± 0.065	0.979 ± 0.12
MRPL20 (UniProt Q9BYC9)	0.937 ± 0.083	0.995 ± 0.088
GINS3 (UniProt Q9BRX5)	0.945 ± 0.054	0.924 ± 0.081
CNPY3 (UniProt Q9BT09)	0.914 ± 0.013	0.905 ± 0.046
UniProt Q9BUT1 and related entries	0.967 ± 0.025	0.9458 ± 0.0039
DDA1 (UniProt Q9BW61)	0.927 ± 0.09	0.941 ± 0.015
BTBD2 (UniProt Q9BX70)	0.877 ± 0.043	0.955 ± 0.16
UniProt Q9BQF6 and related entries	1.02 ± 0.036	1.11 ± 0.059
